Experimental data: paper PMC10444890

Amino acid sequences for entries named in this document (tags omitted). A change or cut given only in a name is not applied to a line headed by its entry.
UniProt Q9VU14: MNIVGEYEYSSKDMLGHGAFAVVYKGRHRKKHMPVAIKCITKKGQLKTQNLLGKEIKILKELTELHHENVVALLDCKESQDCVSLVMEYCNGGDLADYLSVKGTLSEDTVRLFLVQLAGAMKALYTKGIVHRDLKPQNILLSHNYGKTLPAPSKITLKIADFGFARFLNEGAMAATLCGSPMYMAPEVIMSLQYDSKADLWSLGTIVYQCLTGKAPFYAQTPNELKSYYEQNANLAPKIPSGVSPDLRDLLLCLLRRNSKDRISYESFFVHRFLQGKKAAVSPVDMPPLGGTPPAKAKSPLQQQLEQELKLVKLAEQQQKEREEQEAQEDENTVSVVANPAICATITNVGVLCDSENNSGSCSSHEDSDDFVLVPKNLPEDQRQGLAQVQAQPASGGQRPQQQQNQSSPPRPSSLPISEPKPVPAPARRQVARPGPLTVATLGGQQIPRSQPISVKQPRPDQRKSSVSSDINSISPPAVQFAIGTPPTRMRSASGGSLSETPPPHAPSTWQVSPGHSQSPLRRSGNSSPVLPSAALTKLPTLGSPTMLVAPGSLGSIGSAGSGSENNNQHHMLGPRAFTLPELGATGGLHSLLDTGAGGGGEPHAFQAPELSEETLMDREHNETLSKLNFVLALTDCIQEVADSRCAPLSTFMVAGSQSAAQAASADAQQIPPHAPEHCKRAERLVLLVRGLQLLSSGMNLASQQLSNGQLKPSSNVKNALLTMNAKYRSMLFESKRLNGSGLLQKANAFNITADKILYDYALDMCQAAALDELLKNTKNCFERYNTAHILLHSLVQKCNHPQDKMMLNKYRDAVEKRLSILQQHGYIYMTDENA

Target: Flag-tagged Leon (Drosophila) (UniProt Q9VZU7)
Test: co-IP; Drosophila adult head lysates of flies expressing Flag-Leon with GMR-Gal4, immunoprecipitated with anti-IgG or anti-Flag antibody, immunoblotted for endogenous Atg1

endogenous Atg1 (from UniProt Q9VU14) (enzyme)
binding: binds

These are yes or no findings as the source states them, for the method shown. Binding seen in cells or lysates may run through a third protein. A result given as binding can be weak or reduced; the word gives no strength.
